In all, about 33,000 sequences were measured (“E-score (-0.5 to 0.5)”: median about -0.015, highest 2% from about 0.3 on). The list shows a part of the results.
target: T1, Abf1 (UniProt P14164); test: PBM E-score (8-mer binding enrichment) (E-score (-0.5 to 0.5)); higher = stronger / more preferred TF binding; conditions: protein concentration: 200 nM; construct: GST-full length
T1 sequence: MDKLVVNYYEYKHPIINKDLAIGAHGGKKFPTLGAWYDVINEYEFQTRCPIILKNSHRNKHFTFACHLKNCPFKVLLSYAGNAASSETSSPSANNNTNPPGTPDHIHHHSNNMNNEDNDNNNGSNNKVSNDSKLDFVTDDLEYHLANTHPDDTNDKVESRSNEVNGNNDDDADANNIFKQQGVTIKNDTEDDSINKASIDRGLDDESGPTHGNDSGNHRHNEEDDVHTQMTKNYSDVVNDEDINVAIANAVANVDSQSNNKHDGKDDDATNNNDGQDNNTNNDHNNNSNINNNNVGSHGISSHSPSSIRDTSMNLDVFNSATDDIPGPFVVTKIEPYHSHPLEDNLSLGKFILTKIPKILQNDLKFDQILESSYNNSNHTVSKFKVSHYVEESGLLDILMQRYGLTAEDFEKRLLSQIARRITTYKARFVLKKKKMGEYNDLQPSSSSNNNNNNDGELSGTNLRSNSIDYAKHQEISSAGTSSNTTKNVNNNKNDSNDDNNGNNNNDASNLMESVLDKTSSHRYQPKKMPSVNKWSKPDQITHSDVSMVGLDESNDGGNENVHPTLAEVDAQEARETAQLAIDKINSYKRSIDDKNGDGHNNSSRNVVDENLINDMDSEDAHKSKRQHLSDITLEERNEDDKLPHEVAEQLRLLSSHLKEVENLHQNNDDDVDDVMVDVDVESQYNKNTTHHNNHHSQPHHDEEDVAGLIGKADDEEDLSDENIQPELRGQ
Procedure, shortened: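 Using PURExpress in vitro transcription/translation, GST-tagged yeast transcription factors were made in full-length or DNA-binding-domain form. These were applied at about 100-200 nM to double-stranded universal all-10-mer Agilent arrays, and bound protein was detected with fluorescent anti-GST. Scans were normalised with masliner before the Universal PBM Analysis Suite assigned E-scores to ungapped eight-base words pooled with their reverse complements.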

| Sequence | PBM E-score |
| --- | --- |
| CGGAATGC | -0.183 |
| AATGGCCC | -0.247 |
| AATAACCT | -0.00028 |
| ACATTCAA | -0.0274 |
| AGGCATAC | -0.0147 |
| GAGTGTCC | -0.0553 |
| AACGAGGG | -0.0825 |
| CTTATCTC | 0.099 |
| CAGACCTG | -0.225 |
| ACTCAGAA | -0.00208 |
| AGGTTAAT | 0.146 |
| AAAGCAGT | -0.0295 |
| GAGACAAC | -0.103 |
| AGGATTAG | -0.0544 |
| CCGGGACA | -0.00626 |
| GCTGTACC | -0.344 |
| AAGGTGCG | -0.148 |
| GGTCGTAA | 0.104 |
| CGCACGCC | -0.102 |
| ACTCTCTG | -0.0879 |
| ATTTGTTC | 0.264 |
| GACATCGA | 0.151 |

| Sequence | PBM E-score |
| --- | --- |
| ATCGAGGA | -0.0858 |
| CGCACCGC | -0.309 |
| ATGTATTA | 0.248 |
| AACTCTTA | -0.0475 |
| GGCCCGAC | -0.151 |
| AAGCTACC | -0.00977 |
| TACTCGCA | -0.0237 |
| ACACTCAA | 0.123 |
| GTTACGGA | 0.0726 |
| AACGGTCC | 0.185 |
| AAACAAGC | 0.0103 |
| ACCTGCCC | -0.238 |
| AATGCCAA | 0.099 |
| CGCTCACC | -0.192 |
| AGCACCTG | -0.0667 |
| GCTATACC | -0.127 |
| TAACCGTA | 0.0887 |
| GGACCCAA | -0.264 |
| GCTATTCA | 0.0314 |
| AGTCCGGG | -0.103 |
| CTGCCTAC | 0.09 |
| CGTCGCCA | 0.177 |

| Sequence | PBM E-score |
| --- | --- |
| ATCCAGGG | -0.0237 |
| CGGGTGAA | 0.161 |
| GGCCGGAC | -0.14 |
| GCCAGCTA | -0.188 |
| GAGAGAAA | 0.0736 |
| CCCGCGCG | -0.0173 |
| GACTTTGC | -0.0212 |
| GACGGATC | 0.103 |
| AATACGTG | 0.096 |
| AGTATCTC | -0.0264 |
| AAAACATA | 0.0722 |
| ATAAATTG | 0.115 |
| GCTTTAAC | 0.00738 |
| ATTGATTG | 0.101 |
| CGTTCACC | -0.00932 |
| AAAACGTA | 0.0381 |
| CTAGGATA | -0.0458 |
| ACGCTATG | 0.0878 |
| CCATTCCC | -0.163 |
| CGTGAACG | 0.0977 |
| GCGATCAC | 0.0858 |
| AAAAATAT | 0.27 |

| Sequence | PBM E-score |
| --- | --- |
| ACTCGCCC | -0.2 |
| GGCTCAAA | -0.109 |
| CCAACCTC | 0.0322 |
| AGACCAAC | -0.109 |
| CAAGGATG | -0.259 |
| CTTGGCGA | -0.1 |
| AAGAGCTA | 0.0764 |
| CCTGGAGC | -0.029 |
| ACTATTAC | 0.0535 |
| TATAACCA | 0.0986 |
| CTAAAGTC | -0.0395 |
| CTACATAA | -0.118 |
| GTTGCAAC | 0.095 |
| CATAGGCC | -0.151 |
| ACGGCCGG | 0.128 |
| AATCTTGC | 0.0985 |
| TAAGCGAA | -0.00629 |
| ACATTTGA | 0.0645 |
| AAGAAACC | -0.0975 |
| ACCATCGA | 0.0573 |

From the supplement of paper PMC3334620
